Test results published in the supplement of paper PMC10032668.
This is one part of the list. Only hits are listed; about a third recur on repeated control peptides.

Sequences of proteins named here, by UniProt entry; tags and fusion partners are left off.
CNOT1, A5YKK6, UniProt A5YKK6, whole entry: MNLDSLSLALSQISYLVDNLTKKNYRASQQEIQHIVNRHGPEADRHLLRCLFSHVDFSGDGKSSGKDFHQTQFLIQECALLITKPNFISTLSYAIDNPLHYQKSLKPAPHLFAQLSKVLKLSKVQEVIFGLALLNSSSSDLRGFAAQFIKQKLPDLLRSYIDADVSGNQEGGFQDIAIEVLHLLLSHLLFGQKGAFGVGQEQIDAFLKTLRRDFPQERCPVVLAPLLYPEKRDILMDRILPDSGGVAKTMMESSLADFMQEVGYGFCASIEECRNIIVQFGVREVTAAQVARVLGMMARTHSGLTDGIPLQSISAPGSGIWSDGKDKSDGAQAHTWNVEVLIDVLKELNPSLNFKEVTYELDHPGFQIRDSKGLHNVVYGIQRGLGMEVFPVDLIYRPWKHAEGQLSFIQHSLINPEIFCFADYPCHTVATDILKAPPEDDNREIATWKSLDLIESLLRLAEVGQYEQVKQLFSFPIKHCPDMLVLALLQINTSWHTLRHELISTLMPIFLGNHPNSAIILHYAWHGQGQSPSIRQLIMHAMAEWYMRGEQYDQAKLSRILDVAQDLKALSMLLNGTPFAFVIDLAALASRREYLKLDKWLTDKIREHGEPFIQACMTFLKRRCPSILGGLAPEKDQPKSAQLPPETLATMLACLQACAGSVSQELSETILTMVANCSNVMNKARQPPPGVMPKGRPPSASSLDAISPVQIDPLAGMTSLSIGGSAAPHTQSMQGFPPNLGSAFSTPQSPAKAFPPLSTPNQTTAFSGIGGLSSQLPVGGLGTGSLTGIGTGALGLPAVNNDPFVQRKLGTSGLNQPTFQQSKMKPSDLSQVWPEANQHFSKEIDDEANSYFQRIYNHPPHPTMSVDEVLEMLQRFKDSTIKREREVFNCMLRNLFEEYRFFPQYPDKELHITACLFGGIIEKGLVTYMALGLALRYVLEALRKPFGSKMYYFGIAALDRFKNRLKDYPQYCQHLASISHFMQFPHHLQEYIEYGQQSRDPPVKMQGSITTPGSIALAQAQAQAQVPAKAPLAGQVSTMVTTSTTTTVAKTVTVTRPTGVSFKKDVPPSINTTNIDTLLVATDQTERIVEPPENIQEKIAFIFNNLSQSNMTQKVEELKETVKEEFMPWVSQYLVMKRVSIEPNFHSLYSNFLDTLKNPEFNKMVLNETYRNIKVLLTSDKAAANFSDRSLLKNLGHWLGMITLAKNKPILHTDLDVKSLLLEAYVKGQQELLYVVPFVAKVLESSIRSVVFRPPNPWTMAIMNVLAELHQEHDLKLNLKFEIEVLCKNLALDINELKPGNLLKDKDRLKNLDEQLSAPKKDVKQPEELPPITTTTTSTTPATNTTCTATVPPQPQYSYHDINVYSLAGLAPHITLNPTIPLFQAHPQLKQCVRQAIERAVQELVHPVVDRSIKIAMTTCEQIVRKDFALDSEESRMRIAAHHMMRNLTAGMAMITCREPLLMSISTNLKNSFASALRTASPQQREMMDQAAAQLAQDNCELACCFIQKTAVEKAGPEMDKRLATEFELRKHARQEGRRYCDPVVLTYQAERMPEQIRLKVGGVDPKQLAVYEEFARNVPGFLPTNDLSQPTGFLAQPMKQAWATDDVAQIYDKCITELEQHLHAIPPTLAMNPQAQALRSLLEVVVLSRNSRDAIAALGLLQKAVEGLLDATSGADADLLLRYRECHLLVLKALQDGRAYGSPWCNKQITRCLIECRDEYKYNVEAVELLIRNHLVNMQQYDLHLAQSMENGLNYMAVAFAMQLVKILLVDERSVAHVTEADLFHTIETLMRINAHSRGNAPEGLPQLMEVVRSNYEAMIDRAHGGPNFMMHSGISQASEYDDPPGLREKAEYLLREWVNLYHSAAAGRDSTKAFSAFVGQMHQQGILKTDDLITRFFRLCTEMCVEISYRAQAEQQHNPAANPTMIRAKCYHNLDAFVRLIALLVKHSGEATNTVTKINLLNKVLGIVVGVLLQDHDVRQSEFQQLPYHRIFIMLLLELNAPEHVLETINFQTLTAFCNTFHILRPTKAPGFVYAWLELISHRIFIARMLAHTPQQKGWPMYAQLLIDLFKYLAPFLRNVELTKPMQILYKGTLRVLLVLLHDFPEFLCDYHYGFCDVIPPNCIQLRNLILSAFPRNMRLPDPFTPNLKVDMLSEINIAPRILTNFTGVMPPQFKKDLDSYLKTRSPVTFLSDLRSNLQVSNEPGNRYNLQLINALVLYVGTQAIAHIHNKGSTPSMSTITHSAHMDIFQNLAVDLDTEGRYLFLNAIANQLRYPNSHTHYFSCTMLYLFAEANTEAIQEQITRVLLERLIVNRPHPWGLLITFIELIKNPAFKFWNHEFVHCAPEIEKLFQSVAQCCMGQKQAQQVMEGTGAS
LRPAP1, P30533, UniProt P30533, whole entry: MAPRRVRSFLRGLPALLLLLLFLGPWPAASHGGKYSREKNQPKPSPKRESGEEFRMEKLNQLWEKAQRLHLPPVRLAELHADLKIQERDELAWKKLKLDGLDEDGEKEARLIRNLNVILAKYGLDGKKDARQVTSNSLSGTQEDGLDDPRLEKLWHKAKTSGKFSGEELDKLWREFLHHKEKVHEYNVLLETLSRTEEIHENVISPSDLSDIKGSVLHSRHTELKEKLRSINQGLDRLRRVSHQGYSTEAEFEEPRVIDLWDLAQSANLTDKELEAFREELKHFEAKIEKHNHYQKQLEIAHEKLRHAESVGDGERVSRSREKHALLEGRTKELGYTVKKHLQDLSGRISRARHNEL
SDC2, P34741, UniProt P34741, whole entry: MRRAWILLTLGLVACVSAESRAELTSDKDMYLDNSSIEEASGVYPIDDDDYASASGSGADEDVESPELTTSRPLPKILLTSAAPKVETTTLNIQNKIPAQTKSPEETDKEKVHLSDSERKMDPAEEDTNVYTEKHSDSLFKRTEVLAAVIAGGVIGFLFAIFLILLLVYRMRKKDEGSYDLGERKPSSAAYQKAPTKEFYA
CNOT3, O75175, UniProt O75175, whole entry: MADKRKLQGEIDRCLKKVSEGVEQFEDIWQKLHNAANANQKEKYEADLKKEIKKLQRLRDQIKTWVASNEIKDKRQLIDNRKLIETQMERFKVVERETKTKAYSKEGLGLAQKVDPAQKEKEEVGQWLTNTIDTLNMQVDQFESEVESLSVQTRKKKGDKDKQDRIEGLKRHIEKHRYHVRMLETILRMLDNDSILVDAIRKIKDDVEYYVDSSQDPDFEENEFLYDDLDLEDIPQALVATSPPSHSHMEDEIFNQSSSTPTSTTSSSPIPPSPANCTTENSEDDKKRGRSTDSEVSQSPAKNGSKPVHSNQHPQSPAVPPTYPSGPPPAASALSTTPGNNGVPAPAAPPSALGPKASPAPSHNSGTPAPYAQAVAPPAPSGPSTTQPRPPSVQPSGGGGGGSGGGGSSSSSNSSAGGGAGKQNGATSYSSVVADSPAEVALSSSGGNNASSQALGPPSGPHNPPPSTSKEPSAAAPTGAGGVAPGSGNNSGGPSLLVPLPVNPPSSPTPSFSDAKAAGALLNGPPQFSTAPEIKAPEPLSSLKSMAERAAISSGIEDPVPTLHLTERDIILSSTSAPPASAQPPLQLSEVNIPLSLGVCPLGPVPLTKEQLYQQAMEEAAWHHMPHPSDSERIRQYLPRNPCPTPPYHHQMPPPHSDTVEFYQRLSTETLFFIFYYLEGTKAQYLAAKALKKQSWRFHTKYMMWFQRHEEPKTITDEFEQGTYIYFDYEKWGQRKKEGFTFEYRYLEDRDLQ
LARP4, Q71RC2, UniProt Q71RC2, whole entry: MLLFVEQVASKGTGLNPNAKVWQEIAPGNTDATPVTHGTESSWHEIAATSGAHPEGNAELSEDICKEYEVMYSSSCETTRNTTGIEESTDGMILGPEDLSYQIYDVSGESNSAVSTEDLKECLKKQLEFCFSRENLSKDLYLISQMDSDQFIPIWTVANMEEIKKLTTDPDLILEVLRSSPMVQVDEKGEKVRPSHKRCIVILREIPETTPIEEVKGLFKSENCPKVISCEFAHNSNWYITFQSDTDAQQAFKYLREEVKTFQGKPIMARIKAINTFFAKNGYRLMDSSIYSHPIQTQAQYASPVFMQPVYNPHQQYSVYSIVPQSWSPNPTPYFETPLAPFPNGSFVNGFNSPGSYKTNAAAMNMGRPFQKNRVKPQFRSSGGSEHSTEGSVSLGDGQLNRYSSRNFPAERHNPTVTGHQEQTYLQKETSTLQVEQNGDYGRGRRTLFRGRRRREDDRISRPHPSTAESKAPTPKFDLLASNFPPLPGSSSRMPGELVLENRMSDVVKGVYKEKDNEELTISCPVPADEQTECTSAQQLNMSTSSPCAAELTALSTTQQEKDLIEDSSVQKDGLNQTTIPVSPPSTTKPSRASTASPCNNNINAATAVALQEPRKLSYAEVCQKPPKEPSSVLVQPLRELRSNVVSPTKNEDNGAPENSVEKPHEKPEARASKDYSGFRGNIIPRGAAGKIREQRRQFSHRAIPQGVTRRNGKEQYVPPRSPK

Assays:
Assay in all cases: PRISMA enrichment of interactor (LFQ) in peptide spot vs all other peptide spots (log2 fold change); higher = stronger / more specific binding of the interactor to the peptide
CNOT1, A5YKK6 = biological target: CNOT1, A5YKK6
Description: (§1)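 PRISMA: 221 full-length sORF-encoded peptides (3-15 aa), plus SOS1/GLUT1 control peptides, were spot-synthesized on cellulose membranes in triplicate. Membranes were incubated with HEK293T lysate, and bound proteins were identified by LC-MS/MS with LFQ. Enrichment is the log2 fold change versus all other peptide spots; only significant interactors are listed (cutoff c=6, x0=2.8).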

EXOC1, Q9NV70 = biological target: EXOC1, Q9NV70
Description: as §1

MRPL53, Q96EL3 = biological target: MRPL53, Q96EL3
Description: as §1

SPTSSA, Q969W0 = biological target: SPTSSA, Q969W0
Description: as §1

CKAP2L, Q8IYA6 = biological target: CKAP2L, Q8IYA6
Description: as §1

DCAF7, P61962 = biological target: DCAF7, P61962
Description: as §1

GRB2, P62993 = biological target: GRB2, P62993
Description: as §1

LRPAP1, P30533 = biological target: LRPAP1, P30533
Description: as §1

NPC2, P61916 = biological target: NPC2, P61916
Description: as §1

NTMT1, Q9BV86 = biological target: NTMT1, Q9BV86
Description: as §1

RPL26L1, Q9UNX3 = biological target: RPL26L1, Q9UNX3
Description: as §1

RTKN, Q9BST9 = biological target: RTKN, Q9BST9
Description: as §1

SDC1, P18827 = biological target: SDC1, P18827
Description: as §1

SDC2, P34741 = biological target: SDC2, P34741
Description: as §1

SDF4, Q9BRK5 = biological target: SDF4, Q9BRK5
Description: as §1

TRAF7, Q6Q0C0 = biological target: TRAF7, Q6Q0C0
Description: as §1

ZNF146, Q15072 = biological target: ZNF146, Q15072
Description: as §1

CNOT3, O75175 = biological target: CNOT3, O75175
Description: as §1

LARP4, Q71RC2 = biological target: LARP4, Q71RC2
Description: as §1

MRM3, Q9HC36 = biological target: MRM3, Q9HC36
Description: as §1

PI4KA, P42356 = biological target: PI4KA, P42356
Description: as §1

PPAN-P2RY11 = biological target: PPAN-P2RY11
Description: as §1

RELCH, Q9P260 = biological target: RELCH, Q9P260
Description: as §1

UBA2, Q9UBT2 = biological target: UBA2, Q9UBT2
Description: as §1

GABARAPL2, P60520 = biological target: GABARAPL2, P60520
Description: as §1

HMGCL, P35914 = biological target: HMGCL, P35914
Description: as §1

ITPR2, Q14571 = biological target: ITPR2, Q14571
Description: as §1

P3H1, Q32P28 = biological target: P3H1, Q32P28
Description: as §1

PDAP1, Q13442 = biological target: PDAP1, Q13442
Description: as §1

VANGL1, Q8TAA9 = biological target: VANGL1, Q8TAA9
Description: as §1

WDR70, Q9NW82 = biological target: WDR70, Q9NW82
Description: as §1

EMILIN1, Q9Y6C2 = biological target: EMILIN1, Q9Y6C2
Description: as §1

FLII, Q13045 = biological target: FLII, Q13045
Description: as §1

NCBP3, Q53F19 = biological target: NCBP3, Q53F19
Description: as §1

Binder: MRFGLCQGT [KDM5A]
- PRISMA enrichment of interactor (log2) (CNOT1, A5YKK6): 5.72

Binder: MALARKLPRC [AIP]
- PRISMA enrichment of interactor (log2) (EXOC1, Q9NV70): 3.79
- PRISMA enrichment of interactor (log2) (MRPL53, Q96EL3): 5.28
- PRISMA enrichment of interactor (log2) (SPTSSA, Q969W0): 9.91

Binder: MKRVPMNLPPAE [CIPC]
- PRISMA enrichment of interactor (log2) (CKAP2L, Q8IYA6): 4.11
- PRISMA enrichment of interactor (log2) (DCAF7, P61962): 6.15
- PRISMA enrichment of interactor (log2) (GRB2, P62993): 5.92
- PRISMA enrichment of interactor (log2) (LRPAP1, P30533): 5.07
- PRISMA enrichment of interactor (log2) (NPC2, P61916): 5.18
- PRISMA enrichment of interactor (log2) (NTMT1, Q9BV86): 6.29
- PRISMA enrichment of interactor (log2) (RPL26L1, Q9UNX3): 4.61
- PRISMA enrichment of interactor (log2) (RTKN, Q9BST9): 3.93
- PRISMA enrichment of interactor (log2) (SDC1, P18827): 4.11
- PRISMA enrichment of interactor (log2) (SDC2, P34741): 5.5
- PRISMA enrichment of interactor (log2) (SDF4, Q9BRK5): 5.55
- PRISMA enrichment of interactor (log2) (TRAF7, Q6Q0C0): 6.55
- PRISMA enrichment of interactor (log2) (ZNF146, Q15072): 4

Binder: MIYGNKVLSLCLK [PSMA3-AS1]
- PRISMA enrichment of interactor (log2) (CNOT3, O75175): 4.48
- PRISMA enrichment of interactor (log2) (LARP4, Q71RC2): 4.47
- PRISMA enrichment of interactor (log2) (MRM3, Q9HC36): 3.97
- PRISMA enrichment of interactor (log2) (PI4KA, P42356): 4.12
- PRISMA enrichment of interactor (log2) (PPAN-P2RY11): 6.61
- PRISMA enrichment of interactor (log2) (RELCH, Q9P260): 4.49
- PRISMA enrichment of interactor (log2) (UBA2, Q9UBT2): 4.8

Binder: MQPSGPRGWTLL [CHID1]
- PRISMA enrichment of interactor (log2) (GABARAPL2, P60520): 4.97
- PRISMA enrichment of interactor (log2) (HMGCL, P35914): 3.95
- PRISMA enrichment of interactor (log2) (ITPR2, Q14571): 3.62
- PRISMA enrichment of interactor (log2) (P3H1, Q32P28): 6.53
- PRISMA enrichment of interactor (log2) (PDAP1, Q13442): 5.44
- PRISMA enrichment of interactor (log2) (VANGL1, Q8TAA9): 3.91
- PRISMA enrichment of interactor (log2) (WDR70, Q9NW82): 4.09

Binder: MARVLDRWT [COQ4]
- PRISMA enrichment of interactor (log2) (EMILIN1, Q9Y6C2): 5.9
- PRISMA enrichment of interactor (log2) (FLII, Q13045): 5.61
- PRISMA enrichment of interactor (log2) (NCBP3, Q53F19): 5.38
